Values quoted from earlier work, collected in US11612579B2, “Compositions comprising a fatty acid oil mixture and a surfactant, and methods and uses thereof” (PRONOVA BIOPHARMA NORGE AS, priority 2009, dated 2023).
At least one structure is not confirmed: it was looked up by name or label, or the drawing left a doubt.

Conditions: commercially-available surfactants

SMILES: CCCCCCCCCCCCCCCC[n+]1ccccc1 [Cetylpyridinium chloride]
- HLB Value: 26.0
